# Primary screen of a compound library

The chains behind the UniProt entries cited, without tags or fusion partners.
UniProt E9BF75, entry or part of it: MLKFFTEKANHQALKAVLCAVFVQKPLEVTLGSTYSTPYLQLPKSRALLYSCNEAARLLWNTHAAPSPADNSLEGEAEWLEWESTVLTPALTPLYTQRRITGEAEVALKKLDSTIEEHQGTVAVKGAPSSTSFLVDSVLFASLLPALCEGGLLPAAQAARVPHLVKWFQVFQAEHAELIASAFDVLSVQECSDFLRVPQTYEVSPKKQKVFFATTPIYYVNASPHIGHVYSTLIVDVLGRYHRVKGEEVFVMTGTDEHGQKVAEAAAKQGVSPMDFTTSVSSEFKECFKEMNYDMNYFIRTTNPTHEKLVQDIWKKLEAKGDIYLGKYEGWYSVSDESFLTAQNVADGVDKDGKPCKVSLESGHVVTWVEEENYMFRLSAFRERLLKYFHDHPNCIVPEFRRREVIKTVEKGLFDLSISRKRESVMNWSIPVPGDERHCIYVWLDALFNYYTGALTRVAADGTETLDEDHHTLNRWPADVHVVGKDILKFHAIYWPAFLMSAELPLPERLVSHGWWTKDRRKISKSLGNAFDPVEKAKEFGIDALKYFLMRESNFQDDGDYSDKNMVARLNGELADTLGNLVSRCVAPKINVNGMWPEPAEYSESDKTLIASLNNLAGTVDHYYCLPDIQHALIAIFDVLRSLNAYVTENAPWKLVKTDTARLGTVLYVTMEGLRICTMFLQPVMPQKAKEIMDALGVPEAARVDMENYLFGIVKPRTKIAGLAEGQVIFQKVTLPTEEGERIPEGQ

Measurements from “University of Dundee, Small-Polar-MMV Screening Library” (2021), ChEMBL document CHEMBL3988442.

Mtb heat-shock: 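Assay on Mycobacterium tuberculosis, filed only as a heat shock assay from Cornell; the read-out is not stated. The concentration is filed as 10 mM, unlikely as a test dose, so the dose is not known. The record gives no direction; compounds that gave an IC50 in retests scored well above the rest, so higher reads as stronger inhibition. About 69,000 compounds were tested under these conditions; 1.4% (about 930) showed 50% or more at least once.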
Mtb growth Cornell: 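Whole-cell assay for inhibitors of Mycobacterium tuberculosis growth, labelled Cornell in the record; the read-out is not stated. The concentration is filed as 10 mM, unlikely as a test dose, so the dose is not known. The record gives no direction; compounds strong in two other growth screens of this library score well above the rest, so higher reads as stronger inhibition. Size under these conditions: about 53,000 compounds, about 900 of them at 50% or above in at least one test.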
LdMetRS: 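Primary screen of methionyl-tRNA synthetase; the read-out is not stated. Target: Methionyl-tRNA synthetase (putative), Leishmania donovani (UniProt E9BF75). The test concentration is not given. The values are filed as inhibition. About 68,000 compounds were tested under these conditions; 0.035% (about 24) showed 50% or more at least once.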

All values are in %.
The record does not define 0% and 100%; most values in the screen are far below 50% and negative numbers occur (in some assays of this library far below -100).
The compounds are a random part of those screened.
A dash means the value is not listed here; it may have been measured.

compound,Mtb heat-shock,Mtb growth Cornell,LdMetRS
CN1CCC(N(CCc2ccccc2)C(=O)COCC2CCCO2)CC1 (stereo not drawn),-7.526,41.94,13.28
O=C(O)C(F)(F)F.[H][C@@]12CN(C(=O)Cc3cccs3)C[C@]1([H])OCCN2C(C)C,-9.239,-33.79,-
O=C(c1cccs1)N1CCN(C(=O)c2ncoc2-c2ccco2)CC1,10.47,-,4.696
CN(C)CCC1CCCCN1Cc1cnc(-c2ccccn2)nc1 (stereo not drawn),-5.289,-,2.133
COCCCNC(=O)CN1CCC(N2CCN(C)C2=O)CC1,-14.37,-,18.87
CC(C)N(C)Cc1noc2c1CN(C(=O)c1cnccn1)CC2,-6.229,-54.52,3.258
CC(C)Oc1ccc(CNC(=O)CC(F)(F)F)cc1F,19.33,28.31,15.75
CCc1nnc(CNCC2CCCN2c2cccnn2)o1 (stereo not drawn),-0.3334,-12.72,13.5
O=C1CC[C@@H]2[C@@H](CCN2C(=O)c2ccsc2)N1Cc1ccncc1,-,-,9.841
Cc1n[nH]cc1CNCC1(c2cccc(F)c2)CCOCC1.Cl,-21.1,-,-
O=C(NCCO)c1coc(Cn2cnc3ccccc32)n1,7.53,-5.219,11.15
Cc1cnn(CC2CN(Cc3cccc(C(=O)N(C)C)c3)CCO2)c1 (stereo not drawn),5.016,11.13,4.453
CC(=O)c1cnc(N(C)Cc2cc(C)cc(C)n2)nc1C,-22.07,0.9814,5.516
Cc1cc(S(=O)(=O)N2CCc3ccc(F)cc32)cc(C(=O)O)c1C,-4.705,-,11.19
O=C(CCN1CCCCC1)N1CCC(Cc2ccc(CO)cc2)C1 (stereo not drawn),2.392,11.59,18.35
Cc1nc(C)n(C2CCCN(C(=O)c3csc(CC(C)C)n3)C2)n1 (stereo not drawn),-8.639,-,10.74
CCOC(C)c1noc(CN2CCN(CC3CCCC3)CC2)n1 (stereo not drawn),6.637,20.62,17.13
Cc1ccc(C(=O)N2CCC3(CC2)CC(c2cnn(C)c2)CO3)cn1 (stereo not drawn),-,-,16.92
CCOC[C@@H]1CC[C@H]2[C@H](CCN2C(=O)c2ccncc2F)O1,-,-,13.2
CN(Cc1cccnc1)CC1CN(C(=O)C2CC2)Cc2nccn2C1 (stereo not drawn),-,-,16.19
CCc1nc(C2CCCN(C(=O)NCCOC)C2)no1 (stereo not drawn),-16.14,-,9.945
COCCn1ccnc1C1CCN(c2cccc(C(=O)O)n2)CC1,-19.5,18,-17.04
[H][C@@]12CCN(Cc3ccco3)C[C@@]1([H])O[C@H](C(=O)N1CCCO1)C2,20.51,-2.454,-
CSCC(C)(O)CNC(=O)c1cccc(Cl)c1Cl (stereo not drawn),-2.682,-26.51,13.86
c1cc2c(cc1-c1noc3c1CN(C1CCSCC1)CC3)OCO2,35.14,17.85,9.028
Cc1cnn(CC2CCCN2CC(=O)Nc2nc(C)cs2)c1 (stereo not drawn),100.4,45.71,16.38
COc1cccc(OCC2CCCN(C(=O)c3cnn(C)c3)C2)c1 (stereo not drawn),-6.354,14.61,10.66
[H][C@@]12C[C@H](C)O[C@]1([H])CCN(C(=O)c1occc1C)C2,15.8,23.57,-
O=C(CCn1cccn1)N1CCSCC1,19.33,-,13.02
COc1cc(C)c2c(c1C)C[C@@H](C(C)C(=O)O)CC2 (stereo partly drawn),8.179,22.81,8.421
Cc1cc(CN(C)CC(c2cccs2)N2CCOCC2)on1 (stereo not drawn),-8.062,-,21.23
COCc1nc(C(=O)NS(=O)(=O)c2ccc(C)cc2C)cs1,2.798,22.41,11.04
Cc1ccc(F)cc1NC(=O)CNc1cccc2c1CCCC2,23.56,-,12.1
O=C(O)C(F)(F)F.[H][C@@]12C[C@H](C(=O)N3CCCO3)CN(Cc3ccoc3)[C@]1([H])CCO2,6.248,-15.47,-
CN(CC(O)C1CC1)C(=O)Nc1cc(F)cc(Br)c1 (stereo not drawn),-11.59,5.584,4.313
CCC[C@@H]1CN(C(=O)c2ccccc2C(C)=O)C[C@H]1N(C)C,-8.989,-37.2,3.817
CC1(c2[nH]ncc2C(N)=O)CCN(c2ncccn2)CC1,-24.77,-17.76,8.1
CC(C)n1nc(CN2CCOCC2)c2c1CN(C(=O)c1ccno1)C2.O=C(O)C(F)(F)F,17.65,-0.6635,-
O=C1NCCCC12CCN(c1nc3c(c(C(F)(F)F)n1)CCCC3)C2 (stereo not drawn),-34.53,15.54,6.183
COc1cc(N2CCC3(CCCN(C(=O)c4cnccn4)C3)C2)ncn1 (stereo not drawn),-,-,5
O=C(c1ccncc1)N1Cc2ccccc2OC2(CCOCC2)C1,-13.52,18.5,12.67
CC1CCN(CCCNS(=O)(=O)c2cccc(F)c2)CC1.Cl,-28.9,9.436,-
CCOc1ccc(C(=O)NS(=O)(=O)c2cncc(Br)c2)cc1OC,-8.951,-,6.159
Cc1ccc(S(=O)(=O)N(C)CC(N)=O)c(Cl)c1,-2.917,18.08,13.48
CCNc1ccc(-c2ccnc3c2ccn3C)nn1,-56.99,8.66,7.125
CCC(CC)(CN)NC(C)c1ccccc1 (stereo not drawn),-13.26,32.85,11.98
COCCCC1CCCCN1C(=O)c1ccc(SCCO)cc1 (stereo not drawn),-21.71,8.798,0.7692
CC(=O)N1CCCC2(CN(Cc3ccccc3C(F)(F)F)CCO2)C1 (stereo not drawn),-43.4,21.93,15.56
[H][C@@]12CN(c3ccccn3)C[C@]1([H])OCCN2CC(=O)N(C)C,8.53,-23.34,-
[H][C@@]12CCN[C@]1([H])CN(S(=O)(=O)c1ccc(Cl)cc1)C2,-13.3,-,-
CCOC(=O)c1cnn(-c2cc(Oc3ccccc3)ncn2)c1N,7.794,-,17.13
CCC(O)Cn1cc(C2=CCN(Cc3ccc(OC)cc3)CC2)cn1 (stereo not drawn),-13.36,12.45,8.333

For reference, 4 entries once more:

Result for CCOC(=O)c1cnn(-c2cc(Oc3ccccc3)ncn2)c1N was Mtb heat-shock: 7.794%; LdMetRS: 17.13%.
Result for COc1cccc(OCC2CCCN(C(=O)c3cnn(C)c3)C2)c1 (stereo not drawn) was Mtb heat-shock: -6.354%; Mtb growth Cornell: 14.61%; LdMetRS: 10.66%.
Result for CC(C)Oc1ccc(CNC(=O)CC(F)(F)F)cc1F was Mtb heat-shock: 19.33%; Mtb growth Cornell: 28.31%; LdMetRS: 15.75%.
Result for O=C(c1ccncc1)N1Cc2ccccc2OC2(CCOCC2)C1 was Mtb heat-shock: -13.52%; Mtb growth Cornell: 18.5%; LdMetRS: 12.67%.